From paper doi:10.1101/2022.07.12.499818
Where two headings read alike, the source gives them in different places. No constants are given. Whether binding was seen depends on the method and setting. For part of these data: In cells and extracts the contact can be indirect. Some results given as binding are weak or reduced against the parent protein; the word gives no strength. For part of these data: Tags and fused reporters may be left off the sequences shown.

Chains of the proteins cited; added tags and fusions are not shown. Lines headed by an entry give the natural chain unless they say otherwise; changes in a name come on top. Residues count along the entry.
UniProt P25858: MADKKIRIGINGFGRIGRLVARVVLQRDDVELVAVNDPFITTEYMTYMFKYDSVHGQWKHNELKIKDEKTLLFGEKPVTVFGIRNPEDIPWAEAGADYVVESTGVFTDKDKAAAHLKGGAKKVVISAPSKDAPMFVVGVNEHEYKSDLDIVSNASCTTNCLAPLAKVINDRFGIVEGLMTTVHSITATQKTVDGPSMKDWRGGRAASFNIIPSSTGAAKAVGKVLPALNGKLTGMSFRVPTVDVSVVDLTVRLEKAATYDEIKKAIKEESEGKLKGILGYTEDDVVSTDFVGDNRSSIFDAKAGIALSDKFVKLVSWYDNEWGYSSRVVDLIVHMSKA
UniProt Q42525: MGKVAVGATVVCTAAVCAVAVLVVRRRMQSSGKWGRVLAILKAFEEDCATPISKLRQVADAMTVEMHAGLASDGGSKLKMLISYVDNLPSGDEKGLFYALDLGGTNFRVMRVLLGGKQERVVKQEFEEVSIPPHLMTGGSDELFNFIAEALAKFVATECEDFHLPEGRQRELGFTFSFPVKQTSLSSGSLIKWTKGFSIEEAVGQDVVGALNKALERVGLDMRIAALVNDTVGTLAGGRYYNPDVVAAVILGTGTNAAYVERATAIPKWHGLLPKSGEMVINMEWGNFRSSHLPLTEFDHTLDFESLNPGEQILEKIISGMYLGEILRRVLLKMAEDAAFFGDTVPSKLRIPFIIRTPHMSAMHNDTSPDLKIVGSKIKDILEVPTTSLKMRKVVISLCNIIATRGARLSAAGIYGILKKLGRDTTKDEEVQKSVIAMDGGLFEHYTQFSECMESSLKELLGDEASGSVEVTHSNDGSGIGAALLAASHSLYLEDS
UniProt P48491: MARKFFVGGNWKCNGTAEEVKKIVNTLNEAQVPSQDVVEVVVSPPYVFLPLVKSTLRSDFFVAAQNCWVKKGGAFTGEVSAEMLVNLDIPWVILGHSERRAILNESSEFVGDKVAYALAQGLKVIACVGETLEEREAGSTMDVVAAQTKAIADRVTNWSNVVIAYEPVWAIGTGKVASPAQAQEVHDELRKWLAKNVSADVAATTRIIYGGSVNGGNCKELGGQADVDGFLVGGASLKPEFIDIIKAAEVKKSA
UniProt Q9SKP6, residues 61-315: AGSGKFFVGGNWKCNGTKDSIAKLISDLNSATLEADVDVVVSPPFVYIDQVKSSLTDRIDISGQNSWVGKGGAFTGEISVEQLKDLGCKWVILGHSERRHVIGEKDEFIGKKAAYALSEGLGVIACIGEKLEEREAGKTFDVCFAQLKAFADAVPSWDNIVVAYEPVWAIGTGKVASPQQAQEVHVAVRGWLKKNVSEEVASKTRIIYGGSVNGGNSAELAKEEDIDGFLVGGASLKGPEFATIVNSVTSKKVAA

How the values were obtained:
[1] = molecular target: T1, ATG101, BiFC fusion (Arabidopsis) (UniProt F4K265); assay: split reporter
T1 sequence: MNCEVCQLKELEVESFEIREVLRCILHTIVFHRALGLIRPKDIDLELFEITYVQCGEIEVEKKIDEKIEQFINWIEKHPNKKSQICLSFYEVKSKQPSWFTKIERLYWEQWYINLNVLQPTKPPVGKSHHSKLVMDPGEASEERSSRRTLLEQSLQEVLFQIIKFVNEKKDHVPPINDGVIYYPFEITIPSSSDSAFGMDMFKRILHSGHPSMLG

[2] = molecular target: T2, ATG8a, BiFC fusion (Arabidopsis) (UniProt Q8LEM4); assay: split reporter
T2 sequence: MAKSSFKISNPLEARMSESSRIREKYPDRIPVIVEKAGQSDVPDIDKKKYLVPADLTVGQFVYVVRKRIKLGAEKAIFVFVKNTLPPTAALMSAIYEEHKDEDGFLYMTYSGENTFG

[3] = molecular target: T3, ATG101, yeast two-hybrid fusion (Arabidopsis) (UniProt F4K265); assay: two-hybrid
T3 sequence: T1 sequence

[4] = molecular target: T4, Myc-ATG101 (Arabidopsis) (UniProt F4K265); assay: co-IP
T4 sequence: T1 sequence

[5] = molecular target: T5, ATG13a, BiFC fusion (Arabidopsis) (UniProt Q9SCK0); assay: split reporter
T5 sequence: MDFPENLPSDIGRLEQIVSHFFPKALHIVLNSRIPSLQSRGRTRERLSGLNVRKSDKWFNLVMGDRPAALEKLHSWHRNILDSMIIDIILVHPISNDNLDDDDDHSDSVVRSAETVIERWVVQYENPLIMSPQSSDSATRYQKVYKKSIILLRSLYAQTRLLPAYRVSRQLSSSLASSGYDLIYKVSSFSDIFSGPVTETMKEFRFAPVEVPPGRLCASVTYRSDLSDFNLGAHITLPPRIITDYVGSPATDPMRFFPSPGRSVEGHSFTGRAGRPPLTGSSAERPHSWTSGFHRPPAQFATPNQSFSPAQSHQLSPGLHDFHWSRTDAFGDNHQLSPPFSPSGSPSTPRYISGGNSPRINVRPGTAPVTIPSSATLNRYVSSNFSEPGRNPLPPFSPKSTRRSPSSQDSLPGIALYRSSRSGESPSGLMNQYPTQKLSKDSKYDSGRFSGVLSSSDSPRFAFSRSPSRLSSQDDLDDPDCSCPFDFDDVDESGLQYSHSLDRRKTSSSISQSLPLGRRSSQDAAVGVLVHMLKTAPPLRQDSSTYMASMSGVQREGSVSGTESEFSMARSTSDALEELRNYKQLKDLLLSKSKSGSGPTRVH

[6] = molecular target: T6, ATG13b, BiFC fusion (Arabidopsis) (UniProt F4J8V5); assay: split reporter
T6 sequence: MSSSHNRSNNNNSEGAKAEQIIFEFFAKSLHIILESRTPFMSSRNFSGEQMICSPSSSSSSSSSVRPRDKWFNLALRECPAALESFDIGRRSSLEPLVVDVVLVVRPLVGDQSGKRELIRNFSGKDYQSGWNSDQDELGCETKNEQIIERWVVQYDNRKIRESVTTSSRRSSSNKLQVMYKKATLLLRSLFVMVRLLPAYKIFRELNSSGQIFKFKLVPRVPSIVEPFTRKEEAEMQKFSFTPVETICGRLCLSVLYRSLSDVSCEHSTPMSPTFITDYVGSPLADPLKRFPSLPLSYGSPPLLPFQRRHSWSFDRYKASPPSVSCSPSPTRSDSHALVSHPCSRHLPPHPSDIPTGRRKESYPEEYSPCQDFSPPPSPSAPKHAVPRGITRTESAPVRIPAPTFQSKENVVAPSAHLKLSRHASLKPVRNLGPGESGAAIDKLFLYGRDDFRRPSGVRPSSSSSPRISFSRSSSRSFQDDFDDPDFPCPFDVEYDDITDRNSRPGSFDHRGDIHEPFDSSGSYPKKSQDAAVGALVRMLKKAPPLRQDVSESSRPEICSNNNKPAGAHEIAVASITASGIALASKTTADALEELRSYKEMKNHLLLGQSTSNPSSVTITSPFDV

[7] = molecular target: T7, phosphoglycerate kinase 3 (PGK3), BiFC fusion (Arabidopsis) (UniProt Q9SAJ4); assay: split reporter
T7 sequence: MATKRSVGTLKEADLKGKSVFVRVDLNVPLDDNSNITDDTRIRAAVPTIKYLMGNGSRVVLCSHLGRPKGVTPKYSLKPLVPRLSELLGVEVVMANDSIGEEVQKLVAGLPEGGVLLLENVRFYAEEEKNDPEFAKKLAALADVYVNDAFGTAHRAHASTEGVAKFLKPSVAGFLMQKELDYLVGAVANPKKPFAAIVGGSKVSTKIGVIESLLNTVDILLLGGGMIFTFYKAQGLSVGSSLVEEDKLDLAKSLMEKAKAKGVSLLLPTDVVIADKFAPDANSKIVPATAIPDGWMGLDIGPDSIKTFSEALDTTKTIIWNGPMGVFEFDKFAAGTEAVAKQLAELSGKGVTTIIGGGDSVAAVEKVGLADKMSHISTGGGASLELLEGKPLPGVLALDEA

[8] = molecular target: T1, ATG101, BiFC fusion (Arabidopsis); assay: split reporter; remark: listed apart in the source
[9] = molecular target: cytosolic phosphorylating glyceraldehyde-3-phosphate dehydrogenase 1 (GAPC1), BiFC fusion (Arabidopsis) (UniProt P25858); assay: split reporter
[10] = molecular target: GAPC1, yeast two-hybrid fusion (Arabidopsis) (UniProt P25858); assay: two-hybrid
[11] = molecular target: HXK1, yeast two-hybrid fusion (Arabidopsis) (UniProt Q42525); assay: two-hybrid
[12] = molecular target: T8, PGK3, yeast two-hybrid fusion (Arabidopsis) (UniProt Q9SAJ4); assay: two-hybrid
T8 sequence: T7 sequence

[13] = molecular target: cytosolic triose phosphate isomerase (CyTPI), yeast two-hybrid fusion (Arabidopsis) (UniProt P48491); assay: two-hybrid
[14] = molecular target: T5, ATG13a, BiFC fusion (Arabidopsis); assay: split reporter; remark: listed apart in the source
[15] = molecular target: T6, ATG13b, BiFC fusion (Arabidopsis); assay: split reporter; remark: listed apart in the source
[16] = molecular target: T3, ATG101, yeast two-hybrid fusion (Arabidopsis); assay: two-hybrid; remark: listed apart in the source

CyTPI^mAIM, BiFC fusion (from UniProt P48491 1-254) (enzyme)
binding [1]: binds | binding [2]: no binding

GAPC1, yeast two-hybrid fusion (from UniProt P25858 1-338) (enzyme)
binding [3]: binds

GAPC1^mAIM, BiFC fusion (from UniProt P25858 1-338) (enzyme)
binding [1]: binds | binding [2]: no binding

HA-CyTPI (from UniProt P48491 1-254) (enzyme)
binding [4]: binds

HA-GAPC1 (from UniProt P25858 1-338) (enzyme)
binding [4]: binds

cytosolic phosphorylating glyceraldehyde-3-phosphate dehydrogenase 1 (GAPC1), BiFC fusion (from UniProt P25858 1-338) (enzyme)
binding [1]: binds | binding [5]: binds weakly | binding [6]: binds weakly | binding [2]: binds | binding [7]: binds | binding [8]: binds

cytosolic triose phosphate isomerase (CyTPI), BiFC fusion (from UniProt P48491 1-254) (enzyme)
binding [1]: binds | binding [5]: binds weakly | binding [6]: binds weakly | binding [2]: binds | binding [9]: binds | binding [7]: binds | binding [8]: binds

cytosolic triose phosphate isomerase (CyTPI), yeast two-hybrid fusion (from UniProt P48491 1-254) (enzyme)
binding [3]: binds | binding [10]: binds | binding [11]: no binding | binding [12]: binds | binding [13]: binds

plastidial triose phosphate isomerase (PdTPI), BiFC fusion (from UniProt Q9SKP6 61-315) (enzyme)
binding [8]: no binding | binding [14]: no binding | binding [15]: no binding

B1: phosphoglycerate kinase 3 (PGK3), BiFC fusion (enzyme, UniProt Q9SAJ4 1-401)
chain: T7 sequence
binding [8]: binds | binding [14]: binds weakly | binding [15]: binds weakly

B2: PGK3, yeast two-hybrid fusion (enzyme, UniProt Q9SAJ4 1-401)
chain: T7 sequence
binding [16]: binds

B3: HA-PGK3 (enzyme, UniProt Q9SAJ4 1-401)
chain: T7 sequence
binding [4]: binds
